The target of this assay is T1, ACVR1C (activin receptor type-1C) (human) (UniProt Q8NER5).
T1 sequence (looked up): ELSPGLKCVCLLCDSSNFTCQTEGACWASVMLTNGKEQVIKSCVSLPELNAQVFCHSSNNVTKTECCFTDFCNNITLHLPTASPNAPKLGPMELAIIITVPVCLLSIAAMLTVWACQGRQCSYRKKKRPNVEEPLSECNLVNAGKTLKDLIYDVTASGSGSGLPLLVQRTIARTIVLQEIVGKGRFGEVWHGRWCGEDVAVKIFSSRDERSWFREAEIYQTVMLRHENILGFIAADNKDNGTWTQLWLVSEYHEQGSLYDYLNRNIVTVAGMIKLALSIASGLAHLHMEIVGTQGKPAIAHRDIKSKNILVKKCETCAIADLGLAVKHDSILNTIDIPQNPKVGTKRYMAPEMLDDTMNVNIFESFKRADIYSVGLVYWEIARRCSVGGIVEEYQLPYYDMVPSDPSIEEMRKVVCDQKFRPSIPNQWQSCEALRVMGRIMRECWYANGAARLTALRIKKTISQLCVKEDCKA
Put plainly: co-IP in HCT116 cells.

These are yes or no findings as the source states them, for the method shown. Binding seen in cells or lysates may run through a third protein.

As to “truncated GREM1 lacking amino acids 100-157 (G3) (ligand)”, the binding entry is “no binding”.
